Assay results published in patent US20230159593A1, “CY[…]” (priority 2020, published 2023).
For at least one compound, name, drawing or mass did not settle the structure.

What was measured:
HCV replication (SGR) = assay type: cell-based, Hepatitis C Virus; conditions: for Effect of absence of PKR on inhibitory activity: Huh7 NT vs Huh7 PKR KO c4, 48 hpe
IFN-β mRNA = assay type: cell-based, Homo sapiens; conditions: HCV-replicating cells, 48 hpe (FIG. 17B)

| SMILES | Effect of absence of PKR on inhibitory activity (HCV replication (SGR)) | Effect on HCV replication (HCV replication (SGR); increasing concentrations, 48 hpe (FIG. 17A)) | Induction of IFN-β expression (IFN-β mRNA) |
| --- | --- | --- | --- |
| CCC[C@H](NC(=O)[C@@H]1[C@H]2CCC[C@H]2CN1C(=O)[C@@H](NC(=O)[C@@H](NC(=O)c1cnccn1)C1CCCCC1)C(C)(C)C)C(=O)C(=O)NC1CC1 [telaprevir, Telaprevir, reference compound] | did not affect the inhibitory activity | – | – |
| COC(=O)N[C@H](C(=O)N1CCC[C@H]1c1nc(-c2ccc(-c3ccc(-c4c[nH]c([C@@H]5CCCN5C(=O)[C@@H](NC(=O)OC)C(C)C)n4)cc3)cc2)c[nH]1)C(C)C [daclatasvir, Daclatasvir, reference compound] | did not affect the inhibitory activity | inhibits HCV replication | without inducing IFN-β expression |
